Hit rate of the full screen: of about 580,000 compounds, about 6,100 (1.1%) were called active. Inconclusive results, whose numbers are uncertain, are shown with a selection of clear calls. The call rests on the fitted dose curve; in most records, active means well fitted inhibition curve with a large enough effect; inconclusive means small, poorly fitted or top-dose-only effect, or another doubt; inactive means no such curve, though single readings can be large or run the other way. Potencies beside an inconclusive call are fits to weak or partial responses and may not hold up.
Target: Polyunsaturated fatty acid lipoxygenase ALOX12 (Homo sapiens) (UniProt P18054)
Assay: Primary qHTS assay for inhibitors of human arachidonate 12S-lipoxygenase (ALOX12): Round 2
Details: purified 12hLO, xylenol orange hydroperoxide absorbance; activity change, negative = inhibition: at 108 µM (top of the series) unless noted
Outline: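 Purified human 12hLO at 150 nM in 25 mM Hepes, 0.01% Triton X-100, pH 7.0, preincubated 15 min at room temperature with compound. Reaction started with 40 uM arachidonic acid, 30 min at room temperature. Hydroperoxide measured by Fe-xylenol orange, 573/405 nm absorbance ratio.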
On the % scale 0 is the no-effect control and ±100 the full control effect; potency means the concentration at half of the fitted maximal effect.

Protein sequences, listed by entry. Tags and fused reporters are not part of them.
UniProt P18054, whole entry, looked up: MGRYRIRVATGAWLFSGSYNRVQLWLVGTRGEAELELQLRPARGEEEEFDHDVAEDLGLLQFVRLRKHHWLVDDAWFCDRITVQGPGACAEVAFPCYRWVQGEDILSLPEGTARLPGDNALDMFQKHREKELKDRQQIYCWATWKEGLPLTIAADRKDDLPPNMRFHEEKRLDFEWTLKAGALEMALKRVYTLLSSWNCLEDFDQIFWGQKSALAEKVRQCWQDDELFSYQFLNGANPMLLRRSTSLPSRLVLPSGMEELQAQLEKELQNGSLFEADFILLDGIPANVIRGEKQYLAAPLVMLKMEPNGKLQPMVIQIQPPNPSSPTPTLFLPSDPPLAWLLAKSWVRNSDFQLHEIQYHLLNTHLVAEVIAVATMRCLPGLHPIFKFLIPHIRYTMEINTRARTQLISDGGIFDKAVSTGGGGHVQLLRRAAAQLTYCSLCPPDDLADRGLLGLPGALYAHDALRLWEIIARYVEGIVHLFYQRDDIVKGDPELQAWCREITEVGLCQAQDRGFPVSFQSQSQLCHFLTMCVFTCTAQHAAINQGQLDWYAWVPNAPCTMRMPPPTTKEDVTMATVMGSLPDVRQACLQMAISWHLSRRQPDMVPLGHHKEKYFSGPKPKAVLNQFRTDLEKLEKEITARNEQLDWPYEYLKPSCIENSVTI

| Compound | activity change, negative = inhibition | Potency |
| --- | --- | --- |
| Cc1ccccc1S(=O)(=O)N1CCCC(Cc2noc(-c3cnccn3)n2)C1 (stereo not drawn) | inactive: 37.3% |  |
| O=C(O)c1ccc(N/N=C/C(Br)=C/c2ccccc2)cc1 |  | active: 39.8 µM |
| COc1ccc(Cl)cc1NC(=S)NCCC(c1ccccc1)c1ccccc1 |  | active: 31.6 µM |
| O=C1N(Cc2cccc(Cl)c2)C[C@@H]2C[C@@H](c3cccc4ncccc34)N3CCC[C@@]123 |  | inconclusive: 31.6 µM [inhibitor, partial curve, poor fit] |
| CC1=C(C(=O)c2ccccc2)C(c2ccc(N3CCOCC3)cc2)NC(=O)N1 (stereo not drawn) |  | inconclusive: 39.8 µM [inhibitor, single point] |
| Cc1ccc(CCNC(=O)C2CCC(=O)N(Cc3ccccc3F)C2)o1 (stereo not drawn) | inactive: 196% |  |
| COc1ccc(CNC(=O)COC(=O)CCOc2ccc(C)cc2)cc1 |  | inconclusive: 31.6 µM [inhibitor, partial curve, poor fit] |
| Cc1ccsc1-c1[nH]nc2ncc(-c3cccc(O)c3)nc12 |  | inconclusive: 35.5 µM [inhibitor, partial curve] |
| CC(=O)N1CCN(C(=O)c2ccc(S(=O)(=O)Nc3ccccc3C)cc2)CC1 |  | inconclusive: 0.501 µM [inhibitor, full curve, poor fit] |
| COC(=O)c1ccccc1S(=O)(=O)NNC(=O)c1ccccc1-n1cccc1 |  | inconclusive: 8.91 µM [inhibitor, full curve, poor fit] |
| COCCNc1ncnc2ccc(-c3cccnc3)cc12 |  | inconclusive: 1.12 µM [inhibitor, full curve, poor fit] |
| COC(=O)c1ccccc1NC(=O)c1sc2nc(C)cc(C)c2c1NC(=O)c1ccccc1OC | inconclusive: -32.9% [inhibitor] |  |
| CN(C)Cc1c(O)ccc2c(=O)c(-c3ccc(Cl)cc3)coc12 |  | inconclusive: 50.1 µM [inhibitor, single point] |
| CN(C)Cc1nc(SCC(=O)Nc2ccccc2)c2ccccc2n1 | inactive: -6.58% |  |
| CCOc1ccc(-c2nnc3ccc(SCc4ccc(C(=O)OC)o4)nn23)cc1 |  | inconclusive: 50.1 µM [inhibitor, partial curve, poor fit] |
| COc1ccc(S(=O)(=O)N(C)C[C@H]2Oc3ccc(NC(=O)Nc4ccc5c(c4)OCO5)cc3CC(=O)N([C@@H](C)CO)C[C@@H]2C)cc1 | inactive: -2.63% |  |
| O=C(N1CCCCC1)N1CCN(C(c2ccccc2)c2ccccc2)CC1 |  | inconclusive: 100 µM [inhibitor, single point] |
| COc1ccc(NC(=O)CSc2nc3c(oc4ccccc43)c(=O)n2Cc2ccco2)cc1Cl |  | inconclusive: 112 µM [inhibitor, partial curve, poor fit] |
| Cc1ccc(OCc2nc(C3CCCN3C(=O)Nc3ccc(C)c(F)c3)no2)cc1 (stereo not drawn) |  | inconclusive: 2.82 µM [inhibitor, full curve] |
| O=C(Nc1ccc(Cl)cc1)N1CCC(c2nn(-c3ccccc3)c(=O)[nH]2)CC1 |  | inconclusive: 22.4 µM [inhibitor, full curve] |
| C=CC(C)=CCC=C(C)C |  | inconclusive: 224 µM [inhibitor, single point] |

| Compound | activity change, negative = inhibition | Potency |
| --- | --- | --- |
| COc1ccc(CNC(=O)c2cc3ccccc3o2)cc1OC | inactive: 27.9% |  |
| CCOc1ccc(C(=O)NC(=S)Nc2ccccc2N2CCCCC2)cc1[N+](=O)[O-] |  | inconclusive: 39.8 µM [inhibitor, partial curve, poor fit] |
| C[C@@]12C(=O)Nc3cc(F)c(F)cc3C(=O)N1[C@H]1c3ccccc3OC[C@@H]1[C@@H]2c1ccccc1 |  | inconclusive: 28.2 µM [inhibitor, partial curve, poor fit] |
| C=CCC[C@@H](Cc1ccc(F)cc1)C(=O)OC[C@H]1CCCN1C(=O)[C@@H](CC=C)CC(=O)N[C@H](CO)Cc1ccccc1 |  | inconclusive: 89.1 µM [inhibitor, single point] |
| O=C(NCc1ccncc1)C1CCC(=O)N(C2CCCCCC2)C1 (stereo not drawn) | inactive: 41.6% |  |
| COc1ccc(-c2nc(S(=O)(=O)c3ccc(Cl)cc3)c(NCc3ccccc3)o2)cc1 |  | inconclusive: 158 µM [inhibitor, partial curve, poor fit] |
| COc1cccc(OCCCCN2CC(C)OC(C)C2)c1 (stereo not drawn) |  | inconclusive: 28.2 µM [inhibitor, partial curve, poor fit] |
| Cc1ccc(Cc2c(-c3ccc(Br)cc3)nc3ccc(Br)cn23)cc1 |  | inconclusive: 39.8 µM [inhibitor, partial curve] |
| CCC(C)N(Cc1ccccc1)C(=O)CCc1cccs1 (stereo not drawn) | inactive: 40.8% |  |
| COc1ccc([C@@H]2CC=C(C(=O)O)[C@H](c3ccc(C(C)(C)C)cc3)N2S(=O)(=O)c2ccc(C)cc2)cc1OC | inactive: -13.2% |  |
| CCCCN(CCCNC(=O)c1ccc2c(c1)NC(=O)CN2C)c1ccccc1 |  | inconclusive: 89.1 µM [inhibitor, single point] |
| Cc1cc(C(=O)COC(=O)c2cc3ccccc3oc2=O)c(C)n1CC(F)(F)F | inactive: 20.4% |  |
| COc1ccc(S(=O)(=O)N(C)c2ccc(C(=O)NCc3ccco3)cc2)cc1OC |  | inconclusive: 50.1 µM [inhibitor, partial curve, poor fit] |
| CCN(CC)c1ccc(NC(=O)c2ccc(NC(=O)C3CCCO3)cc2)c(C)c1 (stereo not drawn) |  | inconclusive: 25.1 µM [inhibitor, single point] |
| CCOC(=O)c1nnn(-c2nonc2-n2cccc2)c1-c1cccc([N+](=O)[O-])c1 | inactive: -4.57% |  |
| COc1ccc2c(c1)OC1=C(C(=O)CCC1)C2C1=C(O)CCCC1=O (stereo not drawn) | inactive: -25.8% |  |
| C/C(=N\NC(=S)Nc1ccccc1)C1Cc2ccccc2C(=O)O1 (stereo not drawn) |  | inconclusive: 35.5 µM [inhibitor, partial curve, poor fit] |
| O=C1NC[C@H](Cc2ccccc2)N(C[C@@H]2CCCN2C[C@H](Cc2ccccc2)N2C[C@H](Cc3ccc(O)cc3)N(CCc3ccccc3)C(=O)C2=O)C1=O |  | inconclusive: 44.7 µM [inhibitor, partial curve, poor fit] |
| CC(C)(C)Cc1c(-c2ccc(C#N)cc2)nc2ccc(Cl)cn12 |  | inconclusive: 35.5 µM [inhibitor, full curve, poor fit] |
| COc1cccc(CN(C)C(=O)CSc2nc(-c3cccs3)nc3ccccc23)c1OC |  | inconclusive: 39.8 µM [inhibitor, partial curve, poor fit] |
| O=C(NCCO)c1cc2cc(Cl)cc(Cl)c2oc1=O |  | inconclusive: 44.7 µM [inhibitor, partial curve, poor fit] |

In another format: entries from further up
Compound,"activity change, negative = inhibition",Potency
COc1ccc2c(c1)OC1=C(C(=O)CCC1)C2C1=C(O)CCCC1=O (stereo not drawn),inactive: -25.8%,
C/C(=N\NC(=S)Nc1ccccc1)C1Cc2ccccc2C(=O)O1 (stereo not drawn),,"inconclusive: 35.5 µM [inhibitor, partial curve, poor fit]"

The list goes on.

| Compound | activity change, negative = inhibition | Potency |
| --- | --- | --- |
| O=[N+]([O-])c1cccc2c(Br)[nH]nc12 |  | inconclusive: 112 µM [inhibitor, partial curve, poor fit] |
| CCOc1cc(/C=C2/NC(=O)NC2=O)cc(Cl)c1OC(C)C |  | inconclusive: 126 µM [inhibitor, single point] |
| C[S+](=O)([O-])N1CCC2(CC1)CN(C(=O)Cc1ccc(O)cc1)Cc1ccccc1O2 |  | inconclusive: 20 µM [inhibitor, full curve] |
| CN(C)S(=O)(=O)c1ccc(C(=O)NCCSc2c(-c3ccccc3)[nH]c3ccccc23)cc1 | inactive: -5.84% |  |
| CC1CC(C)(C)NC(=S)N1CCC(=O)N1CCN(c2ccccc2)CC1 (stereo not drawn) |  | inconclusive: 100 µM [inhibitor, single point] |
| CCNC(=S)/N=C(\N)Nc1nc(C)c2cc(C)ccc2n1 |  | inconclusive: 44.7 µM [inhibitor, partial curve, poor fit] |
| O=C(Oc1c2c3c(noc3c3ccccc13)C(Oc1ccccc1)=CC2=O)c1cccc(F)c1 |  | inconclusive: 31.6 µM [inhibitor, partial curve] |
| Cc1ccc(C(=O)C(C)OC(=O)c2cc3ccccc3oc2=O)cc1 (stereo not drawn) |  | inconclusive: 15.8 µM [inhibitor, partial curve, poor fit] |
| Cc1ccc2cc(COC(=O)c3ccncc3)c(=O)[nH]c2c1 | inactive: 148% [at 57.4 µM] |  |
| C[C@H]1CN([C@@H](C)CO)S(=O)(=O)c2ccc(-c3ccc(C#N)cc3)cc2O[C@H]1CN(C)C(=O)CN(C)C | inactive: 7.93% |  |
| COc1ccc(-n2c(=S)[nH]c3cc(C(=O)NCCCN4CCCC4=O)ccc3c2=O)cc1 |  | inconclusive: 6.31 µM [inhibitor, full curve, poor fit] |
| CC(C)CC(c1nnnn1C1CCCC1)N1CCN(c2ccccc2F)CC1 (stereo not drawn) |  | inconclusive: 39.8 µM [inhibitor, partial curve, poor fit] |
| Cc1ccc(C(=O)NC(=S)NNS(=O)(=O)c2ccc(C)cc2)cc1 |  | inconclusive: 35.5 µM [inhibitor, partial curve] |
| O=C1CC(C(=O)Nc2ccccc2)n2nc(SCc3ccccc3)nc2N1 (stereo not drawn) | inactive: -5.61% |  |
| N#CC1=C(N)NC(SCC(=O)O)=C(C#N)C12CCCC2 |  | inconclusive: 50.1 µM [inhibitor, partial curve, poor fit] |
| Cc1ccc(-c2csc(=Nc3ccccc3)n2-c2ccccc2)cc1 |  | inconclusive: 141 µM [inhibitor, single point] |
| Cc1ccc(C(=O)N2C[C@@H](CO)[C@H](c3ccccn3)C2)cc1C | inactive: 7.57% |  |
| Cc1ccc(-c2ccc(CN3C(CC(C)C)C(=O)N(Cc4cn(Cc5ccco5)nn4)CCS3(=O)=O)cc2)cc1 (stereo not drawn) |  | inconclusive: 22.4 µM [inhibitor, partial curve] |
| COc1ccccc1/C=c1\sc2nc(-c3ccccc3OC)nn2c1=O | inactive: -11.7% |  |
| CS(=O)(=O)c1ccc(Cl)c(NC(=O)C2CCCN(C(=O)c3ccc(Cl)cc3)C2)c1 (stereo not drawn) |  | inconclusive: 44.7 µM [inhibitor, partial curve, poor fit] |
| CC(=O)C1CCC2C3CC=C4CC(SC(=N)N)CCC4(C)C3CCC12C (stereo not drawn) |  | inconclusive: 44.7 µM [inhibitor, partial curve, poor fit] |

— PubChem BioAssay AID1671190 (National Center for Advancing Translational Sciences (NCATS), 2021)
